Results taken from the supplement of paper PMC10849652.
This is one part of the list.

By UniProt entry, the sequences of proteins in these tests, tags left out. Where a name states a change or a piece, a line headed by the entry shows the natural chain unless it says otherwise.
UniProt Q9Y2Q3: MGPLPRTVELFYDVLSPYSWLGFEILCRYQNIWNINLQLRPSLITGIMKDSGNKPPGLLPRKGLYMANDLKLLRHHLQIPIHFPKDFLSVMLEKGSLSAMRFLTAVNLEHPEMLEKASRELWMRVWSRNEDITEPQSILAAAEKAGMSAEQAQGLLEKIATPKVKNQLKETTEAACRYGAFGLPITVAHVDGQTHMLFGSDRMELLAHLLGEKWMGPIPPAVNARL
UniProt P09105: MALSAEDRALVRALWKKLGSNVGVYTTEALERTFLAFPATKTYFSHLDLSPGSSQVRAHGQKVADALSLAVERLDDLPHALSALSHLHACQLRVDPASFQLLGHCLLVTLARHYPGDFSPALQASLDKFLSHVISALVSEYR
UniProt P06396, whole entry, looked up: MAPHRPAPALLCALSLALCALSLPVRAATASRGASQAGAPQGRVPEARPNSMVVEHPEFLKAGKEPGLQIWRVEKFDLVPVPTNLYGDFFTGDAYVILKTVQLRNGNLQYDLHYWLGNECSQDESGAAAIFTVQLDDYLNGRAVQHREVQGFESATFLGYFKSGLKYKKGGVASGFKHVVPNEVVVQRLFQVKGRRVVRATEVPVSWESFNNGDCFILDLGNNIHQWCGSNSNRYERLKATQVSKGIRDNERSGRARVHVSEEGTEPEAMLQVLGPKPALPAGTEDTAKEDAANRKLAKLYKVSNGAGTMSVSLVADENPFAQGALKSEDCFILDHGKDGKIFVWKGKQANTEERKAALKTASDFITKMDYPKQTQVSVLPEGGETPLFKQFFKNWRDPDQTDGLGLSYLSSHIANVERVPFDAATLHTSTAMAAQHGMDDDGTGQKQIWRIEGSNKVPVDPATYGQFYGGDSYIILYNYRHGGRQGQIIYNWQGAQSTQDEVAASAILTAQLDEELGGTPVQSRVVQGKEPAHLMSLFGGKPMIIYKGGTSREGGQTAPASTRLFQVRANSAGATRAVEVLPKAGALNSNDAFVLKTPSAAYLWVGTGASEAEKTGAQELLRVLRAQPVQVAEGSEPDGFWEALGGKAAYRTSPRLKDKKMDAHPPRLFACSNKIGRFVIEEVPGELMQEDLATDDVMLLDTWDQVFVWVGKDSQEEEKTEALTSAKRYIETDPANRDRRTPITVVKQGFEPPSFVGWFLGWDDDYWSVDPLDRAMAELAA
UniProt Q8IYD1, whole entry, looked up: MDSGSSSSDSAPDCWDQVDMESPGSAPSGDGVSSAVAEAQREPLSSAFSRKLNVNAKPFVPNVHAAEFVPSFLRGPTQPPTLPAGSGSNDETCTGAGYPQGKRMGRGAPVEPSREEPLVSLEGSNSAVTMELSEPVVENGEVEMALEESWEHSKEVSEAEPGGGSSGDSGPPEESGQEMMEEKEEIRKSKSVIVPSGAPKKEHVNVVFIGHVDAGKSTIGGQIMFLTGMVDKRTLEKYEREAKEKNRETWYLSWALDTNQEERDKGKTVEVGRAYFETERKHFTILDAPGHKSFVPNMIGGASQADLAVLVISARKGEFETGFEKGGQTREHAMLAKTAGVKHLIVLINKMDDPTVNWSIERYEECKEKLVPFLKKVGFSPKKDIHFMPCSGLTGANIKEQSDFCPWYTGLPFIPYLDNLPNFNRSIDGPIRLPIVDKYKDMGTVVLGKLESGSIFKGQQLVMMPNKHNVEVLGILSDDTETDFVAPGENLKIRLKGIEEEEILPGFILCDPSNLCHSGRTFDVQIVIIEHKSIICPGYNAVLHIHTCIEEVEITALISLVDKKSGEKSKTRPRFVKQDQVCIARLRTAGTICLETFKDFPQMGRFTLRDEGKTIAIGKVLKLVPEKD
UniProt Q9H0R4: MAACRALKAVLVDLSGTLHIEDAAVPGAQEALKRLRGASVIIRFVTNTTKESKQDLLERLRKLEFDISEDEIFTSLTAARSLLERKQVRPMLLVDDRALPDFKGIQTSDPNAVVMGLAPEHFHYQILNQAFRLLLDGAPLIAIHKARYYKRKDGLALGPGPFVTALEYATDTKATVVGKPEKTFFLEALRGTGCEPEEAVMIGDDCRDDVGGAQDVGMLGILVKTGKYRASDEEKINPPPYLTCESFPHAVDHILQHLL
UniProt Q9P2D3: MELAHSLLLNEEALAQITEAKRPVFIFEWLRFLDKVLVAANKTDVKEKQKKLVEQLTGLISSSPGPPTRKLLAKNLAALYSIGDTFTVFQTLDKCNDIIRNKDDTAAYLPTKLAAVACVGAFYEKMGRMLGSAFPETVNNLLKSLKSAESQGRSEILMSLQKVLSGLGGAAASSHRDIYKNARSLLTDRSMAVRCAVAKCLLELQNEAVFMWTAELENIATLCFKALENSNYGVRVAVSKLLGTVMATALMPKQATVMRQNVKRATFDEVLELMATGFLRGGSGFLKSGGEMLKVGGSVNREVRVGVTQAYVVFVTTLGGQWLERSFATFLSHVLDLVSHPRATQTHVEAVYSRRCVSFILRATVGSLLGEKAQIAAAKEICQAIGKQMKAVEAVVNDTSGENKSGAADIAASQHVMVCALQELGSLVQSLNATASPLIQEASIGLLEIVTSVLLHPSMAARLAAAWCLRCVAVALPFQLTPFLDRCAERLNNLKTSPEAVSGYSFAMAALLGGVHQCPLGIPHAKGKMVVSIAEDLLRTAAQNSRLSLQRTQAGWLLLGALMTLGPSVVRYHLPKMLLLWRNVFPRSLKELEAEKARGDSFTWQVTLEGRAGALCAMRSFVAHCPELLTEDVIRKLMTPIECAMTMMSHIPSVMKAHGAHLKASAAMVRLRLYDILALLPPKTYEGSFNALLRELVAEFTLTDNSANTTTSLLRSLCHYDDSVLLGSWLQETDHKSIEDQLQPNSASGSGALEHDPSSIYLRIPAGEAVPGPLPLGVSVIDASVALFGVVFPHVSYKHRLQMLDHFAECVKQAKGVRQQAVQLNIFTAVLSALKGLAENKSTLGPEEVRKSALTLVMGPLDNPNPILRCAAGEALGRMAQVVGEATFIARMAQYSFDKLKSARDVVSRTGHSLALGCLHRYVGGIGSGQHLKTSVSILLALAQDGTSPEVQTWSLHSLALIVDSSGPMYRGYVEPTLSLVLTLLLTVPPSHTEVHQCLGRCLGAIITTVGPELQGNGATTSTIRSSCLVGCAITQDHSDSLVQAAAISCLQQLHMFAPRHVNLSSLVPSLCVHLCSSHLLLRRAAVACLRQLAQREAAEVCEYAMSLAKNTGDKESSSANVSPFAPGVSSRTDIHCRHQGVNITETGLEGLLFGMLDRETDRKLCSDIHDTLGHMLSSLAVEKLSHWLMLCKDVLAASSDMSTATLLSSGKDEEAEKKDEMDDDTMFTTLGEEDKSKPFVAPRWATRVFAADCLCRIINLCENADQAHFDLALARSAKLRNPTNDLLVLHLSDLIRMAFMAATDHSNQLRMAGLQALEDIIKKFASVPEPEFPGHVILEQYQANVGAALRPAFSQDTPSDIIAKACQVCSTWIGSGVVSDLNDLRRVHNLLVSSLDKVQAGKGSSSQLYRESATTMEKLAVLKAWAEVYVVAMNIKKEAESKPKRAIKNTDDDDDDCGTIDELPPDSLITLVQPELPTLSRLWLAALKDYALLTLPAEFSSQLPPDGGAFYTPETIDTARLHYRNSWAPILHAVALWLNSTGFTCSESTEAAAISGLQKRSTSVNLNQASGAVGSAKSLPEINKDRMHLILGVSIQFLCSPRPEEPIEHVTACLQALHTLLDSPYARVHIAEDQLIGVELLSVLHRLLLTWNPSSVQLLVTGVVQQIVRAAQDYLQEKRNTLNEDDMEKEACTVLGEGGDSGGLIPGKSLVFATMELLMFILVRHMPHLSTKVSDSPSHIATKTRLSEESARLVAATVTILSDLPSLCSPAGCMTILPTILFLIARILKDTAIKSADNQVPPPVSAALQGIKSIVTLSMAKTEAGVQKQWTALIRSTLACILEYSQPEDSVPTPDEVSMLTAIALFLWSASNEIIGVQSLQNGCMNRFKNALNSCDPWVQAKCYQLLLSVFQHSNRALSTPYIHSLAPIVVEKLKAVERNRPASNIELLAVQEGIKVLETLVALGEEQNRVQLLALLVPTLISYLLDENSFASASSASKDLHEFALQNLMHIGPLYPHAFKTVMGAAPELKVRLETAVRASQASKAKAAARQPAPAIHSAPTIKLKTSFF
UniProt Q7Z4H3: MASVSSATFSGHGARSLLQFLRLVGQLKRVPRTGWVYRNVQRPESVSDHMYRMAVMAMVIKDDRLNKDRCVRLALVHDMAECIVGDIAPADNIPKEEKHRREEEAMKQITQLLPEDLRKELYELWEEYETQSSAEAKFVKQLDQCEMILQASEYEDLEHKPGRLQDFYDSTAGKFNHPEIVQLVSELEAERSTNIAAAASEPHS
UniProt Q4G148: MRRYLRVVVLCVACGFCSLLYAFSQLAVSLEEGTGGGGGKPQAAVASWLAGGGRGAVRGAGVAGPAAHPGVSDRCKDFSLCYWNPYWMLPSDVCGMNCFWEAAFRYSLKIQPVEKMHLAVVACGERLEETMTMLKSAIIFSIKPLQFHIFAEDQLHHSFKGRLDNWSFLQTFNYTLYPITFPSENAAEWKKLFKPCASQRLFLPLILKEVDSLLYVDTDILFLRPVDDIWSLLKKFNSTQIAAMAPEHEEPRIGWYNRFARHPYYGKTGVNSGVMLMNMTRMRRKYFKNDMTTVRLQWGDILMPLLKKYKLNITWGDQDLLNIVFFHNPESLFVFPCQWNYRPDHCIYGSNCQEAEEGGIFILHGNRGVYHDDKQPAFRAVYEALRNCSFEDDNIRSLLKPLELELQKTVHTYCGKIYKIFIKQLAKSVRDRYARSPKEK
UniProt P16402, whole entry, looked up: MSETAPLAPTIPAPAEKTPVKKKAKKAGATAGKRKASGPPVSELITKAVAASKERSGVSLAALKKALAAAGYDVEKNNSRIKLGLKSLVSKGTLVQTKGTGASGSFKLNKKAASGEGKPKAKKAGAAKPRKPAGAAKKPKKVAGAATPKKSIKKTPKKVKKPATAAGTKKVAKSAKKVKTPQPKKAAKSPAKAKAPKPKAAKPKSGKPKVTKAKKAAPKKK
UniProt P55084: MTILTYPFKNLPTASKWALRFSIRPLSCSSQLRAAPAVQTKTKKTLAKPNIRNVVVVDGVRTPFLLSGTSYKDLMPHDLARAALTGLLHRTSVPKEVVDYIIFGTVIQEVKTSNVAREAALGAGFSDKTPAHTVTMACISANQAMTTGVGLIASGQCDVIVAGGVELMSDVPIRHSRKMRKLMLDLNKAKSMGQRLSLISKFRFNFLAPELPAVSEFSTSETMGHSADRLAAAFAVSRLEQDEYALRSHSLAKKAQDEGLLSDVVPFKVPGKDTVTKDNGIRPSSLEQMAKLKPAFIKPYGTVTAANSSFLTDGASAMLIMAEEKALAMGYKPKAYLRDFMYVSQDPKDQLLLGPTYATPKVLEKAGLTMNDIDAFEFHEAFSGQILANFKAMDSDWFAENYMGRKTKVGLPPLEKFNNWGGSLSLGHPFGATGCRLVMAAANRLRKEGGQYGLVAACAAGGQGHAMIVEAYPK
UniProt P25098: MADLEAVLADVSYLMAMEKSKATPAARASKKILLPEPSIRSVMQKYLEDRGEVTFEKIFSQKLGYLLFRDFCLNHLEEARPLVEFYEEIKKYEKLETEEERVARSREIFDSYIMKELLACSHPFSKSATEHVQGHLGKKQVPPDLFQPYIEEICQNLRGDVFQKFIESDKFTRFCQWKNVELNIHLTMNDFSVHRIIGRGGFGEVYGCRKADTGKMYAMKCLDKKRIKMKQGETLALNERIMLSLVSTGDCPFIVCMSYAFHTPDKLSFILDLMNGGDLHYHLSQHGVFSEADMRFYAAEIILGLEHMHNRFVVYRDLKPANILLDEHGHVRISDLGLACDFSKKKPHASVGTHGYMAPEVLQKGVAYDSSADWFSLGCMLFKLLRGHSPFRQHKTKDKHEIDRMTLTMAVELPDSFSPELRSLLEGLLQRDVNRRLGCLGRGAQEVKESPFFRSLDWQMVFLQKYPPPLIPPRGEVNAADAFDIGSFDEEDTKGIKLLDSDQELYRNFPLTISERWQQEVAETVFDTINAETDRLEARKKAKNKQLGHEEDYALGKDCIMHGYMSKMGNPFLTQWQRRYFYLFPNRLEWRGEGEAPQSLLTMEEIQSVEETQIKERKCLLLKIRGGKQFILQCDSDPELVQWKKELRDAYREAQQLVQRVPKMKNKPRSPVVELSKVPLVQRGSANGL
UniProt Q9H6D7: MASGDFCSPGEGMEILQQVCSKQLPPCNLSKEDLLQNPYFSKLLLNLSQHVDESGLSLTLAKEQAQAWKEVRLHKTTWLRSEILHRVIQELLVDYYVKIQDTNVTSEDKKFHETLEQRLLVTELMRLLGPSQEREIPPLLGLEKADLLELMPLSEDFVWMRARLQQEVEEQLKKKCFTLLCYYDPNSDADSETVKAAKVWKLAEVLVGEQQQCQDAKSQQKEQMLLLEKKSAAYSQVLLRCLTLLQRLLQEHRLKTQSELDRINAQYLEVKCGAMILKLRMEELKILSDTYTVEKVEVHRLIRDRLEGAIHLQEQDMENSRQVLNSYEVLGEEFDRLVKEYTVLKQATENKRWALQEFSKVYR

Columns and labels:
Test in all cases: log2 fold change, soluble protein after heating vs DMSO (PISA); higher = thermal stabilisation; K562 lysate, 10 uM; active = over 0.2 and 3.5 SD of the protein, either way, in both replicates (recomputed)
erlotinib = compound: C#Cc1cccc(Nc2ncnc3cc(OCCOC)c(OCCOC)cc23)c1 [erlotinib]
Summary of the method: (§1)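 The values are log-two fold changes in thermal stability compared with solvent controls and come from duplicates. They were obtained by TMTpro 16plex LC-MS/MS, with channel sums equalised, on the supernatant after 21,000xg for 90 min. That supernatant came from crude K562 extract at 1 mg/mL protein treated with 10 μM compound for 30 min, heated for 3 min across 48°C-58°C, pooled and brought to 0.5% NP-40 at 4°C.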

[1] = compound: C/C(=N\NC(=O)C1=CC(=CC=C1)S(=O)(=O)N2CCOCC2)/C3=C(C=CC(=C3)Cl)O
Summary of the method: as §1

[2] = compound: C1=CC(=CC=C1C2=NC3=C(N2)C=C(C=C3)C(=O)N)OC4=CC=C(C=C4)Cl
Summary of the method: as §1

[3] = compound: C1=CC2=C(C=CC(=C2)/C=C\3/C(=O)NC(=NCC4=CC=CS4)S3)N=C1
Summary of the method: as §1

[4] = compound: C1=CC2=NC=CN=C2C=C1/C=C/3\C(=O)NC(=O)S3
Summary of the method: as §1

[5] = compound: C1=CC=C(C=C1)C2=NC(=C(N2)C3=CC=NC=C3)C4=CC(=C(C=C4)Cl)O
Summary of the method: as §1

[6] = compound: C1=CC=C2C(=C1)C3=NNC4=CC=CC(=C43)C2=O
Summary of the method: as §1

[7] = compound: C1CCN(C1)C(=O)NC2=CC=CC(=C2)NC3=NC=C(C(=N3)NCCC4=CN=CN4)Br
Summary of the method: as §1

[8] = compound: C1CN(CCC1(CC2=CC=C(C=C2)Cl)N)C3=NC=NC4=C3C=CN4
Summary of the method: as §1

IRAK-1-4 Inhibitor I = compound: C1COCCN1CCN2C3=CC=CC=C3N=C2NC(=O)C4=CC(=CC=C4)[N+](=O)[O-] [IRAK-1-4 Inhibitor I]
Summary of the method: as §1

ibrutinib = compound: C=CC(=O)N1CCC[C@@H](n2nc(-c3ccc(Oc4ccccc4)cc3)c3c(N)ncnc32)C1 [ibrutinib]
Summary of the method: as §1

[9] = compound: CC(=O)c1cnc2ccc(-c3cc(Cl)c(O)c(Cl)c3)nc2c1N[C@H]1CC[C@H](CN(C)C)CC1
Summary of the method: as §1

ralimetinib = compound: CC(C)(C)Cn1c(N)nc2ccc(-c3[nH]c(C(C)(C)C)nc3-c3ccc(F)cc3)nc21 [ralimetinib]
Summary of the method: as §1

[10] = compound: CC(C)(O)CC(=O)NCCn1ccc2ncnc(Nc3ccc(Oc4cccc(C(F)(F)F)c4)c(Cl)c3)c21
Summary of the method: as §1

[11] = compound: CC(C)C1=C2N=C(C=C(N2N=C1)NCC3=CC=CC=C3)NCCCCCCN
Summary of the method: as §1

[12] = compound: CC1=C(C(CC(=O)N1)C2=CC=C(C=C2)C(F)(F)F)C(=O)NC3=C(C=C4C(=C3)C=NN4)F
Summary of the method: as §1

[13] = compound: CC1=C(C2=C(C=C1)C(=O)C3=CC=CC=C3N2CCCN)C
Summary of the method: as §1

[14] = compound: CC1=C(C=C(C=C1)NC(=O)C2=CC(=CC=C2)C(C)(C)C#N)NC3=CC4=C(C=C3)N=CN(C4=O)C
Summary of the method: as §1

[15] = compound: CC1=C(C=C(C=C1)NC(=O)C2=CC(=CC=C2)N(C)C)NC(=O)C3=CC=C(C=C3)O
Summary of the method: as §1

[16] = compound: CC1=CC=C(C=C1)SC2=C3C=C(SC3=CN=C2)C(=O)N
Summary of the method: as §1

Measured: log2 fold change

GSTK1 (UniProt Q9Y2Q3)
inactive: erlotinib -0.025 | [1] -0.066 | [2] -0.001 | [3] -0.019 | [4] -0.018 | [5] -0.038 | [6] -0.021 | [7] -0.01 | [8] 0.076 | IRAK-1-4 Inhibitor I 0.002 | ibrutinib 0.062 | [9] 0.009 | ralimetinib 0 | [10] -0.03 | [11] -0.024 | [12] 0.001 | [13] 0.017 | [14] -0.011 | [15] 0.005 | [16] -0.01

HBQ1 (UniProt P09105)
inactive: erlotinib -0.027 | [1] 0.064 | [2] -0.038 | [3] 0.022 | [4] -0.048 | [5] -0.062 | [6] -0.018 | [7] -0.007 | [8] 0.044 | IRAK-1-4 Inhibitor I -0.026 | ibrutinib 0.046 | [9] -0.013 | ralimetinib 0.006 | [10] -0.036 | [11] -0.052 | [12] -0.073 | [13] -0.009 | [14] 0.033 | [15] 0.01 | [16] 0.029

GSN (UniProt P06396)
inactive: erlotinib -0.024 | [1] 0.148 | [2] 0.009 | [3] -0.006 | [4] -0.013 | [5] 0 | [6] -0.013 | [7] -0.019 | [8] -0.058 | IRAK-1-4 Inhibitor I -0.042 | ibrutinib 0.007 | [9] -0.013 | ralimetinib -0.012 | [10] 0.03 | [11] 0.053 | [12] 0.085 | [13] -0.043 | [14] -0.003 | [15] 0.027 | [16] -0.012

GSPT2 (UniProt Q8IYD1)
inactive: erlotinib 0 | [1] 0.09 | [2] 0.035 | [3] -0.015 | [4] 0 | [5] -0.008 | [6] -0.005 | [7] 0.036 | [8] 0.019 | IRAK-1-4 Inhibitor I -0.039 | ibrutinib 0.002 | [9] -0.001 | ralimetinib -0.007 | [10] 0 | [11] -0.047 | [12] 0.029 | [13] 0.021 | [14] 0.014 | [15] -0.052 | [16] 0.054

GSTCD (UniProt Q8NEC7)
inactive: erlotinib 0.041 | [1] -0.017 | [2] -0.037 | [3] 0.033 | [4] -0.027 | [5] 0.012 | [6] -0.021 | [7] -0.028 | [8] 0.005 | IRAK-1-4 Inhibitor I -0.055 | ibrutinib 0.057 | [9] -0.01 | ralimetinib 0.033 | [10] -0.023 | [11] -0.038 | [12] 0.044 | [13] -0.04 | [14] 0.051 | [15] -0.003 | [16] 0.011

GUSB (UniProt P08236)
inactive: erlotinib -0.053 | [1] -0.043 | [2] 0.135 | [3] -0.072 | [4] -0.041 | [5] -0.058 | [6] -0.072 | [7] -0.003 | [8] 0.055 | IRAK-1-4 Inhibitor I 0.066 | ibrutinib 0.06 | [9] -0.099 | ralimetinib 0.056 | [10] -0.097 | [11] 0.099 | [12] -0.075 | [13] 0.069 | [14] 0.044 | [15] -0.029 | [16] -0.088

HDHD2 (UniProt Q9H0R4)
inactive: erlotinib -0.001 | [1] -0.046 | [2] -0.002 | [3] 0.037 | [4] 0.009 | [5] -0.047 | [6] 0.033 | [7] 0.02 | [8] -0.025 | IRAK-1-4 Inhibitor I 0.011 | ibrutinib 0.053 | [9] 0.008 | ralimetinib 0.022 | [10] -0.012 | [11] 0.009 | [12] -0.023 | [13] 0.003 | [14] -0.035 | [15] -0.002 | [16] -0.014

HDAC8 (UniProt Q9BY41)
inactive: erlotinib -0.015 | [1] -0.028 | [2] -0.132 | [3] 0.012 | [4] -0.052 | [5] -0.037 | [6] -0.001 | [7] 0.027 | [8] -0.061 | IRAK-1-4 Inhibitor I 0.008 | ibrutinib -0.102 | [9] 0.049 | ralimetinib -0.018 | [10] 0.041 | [11] 0.045 | [12] -0.111 | [13] 0.08 | [14] -0.012 | [15] -0.013 | [16] 0

HEATR5B (UniProt Q9P2D3)
inactive: erlotinib 0.017 | [1] 0.004 | [2] -0.035 | [3] -0.016 | [4] -0.046 | [5] 0.018 | [6] -0.049 | [7] -0.023 | [8] 0.049 | IRAK-1-4 Inhibitor I 0.057 | ibrutinib 0.082 | [9] -0.003 | ralimetinib -0.076 | [10] -0.135 | [11] -0.031 | [12] -0.004 | [13] 0.018 | [14] 0.033 | [15] -0.039 | [16] 0.002

Random excerpt: 2 records from the list, in no set order.
GUSB (UniProt P08236)
inactive: erlotinib -0.053 | [1] -0.043 | [2] 0.135 | [3] -0.072 | [4] -0.041 | [5] -0.058 | [6] -0.072 | [7] -0.003 | [8] 0.055 | IRAK-1-4 Inhibitor I 0.066 | ibrutinib 0.06 | [9] -0.099 | ralimetinib 0.056 | [10] -0.097 | [11] 0.099 | [12] -0.075 | [13] 0.069 | [14] 0.044 | [15] -0.029 | [16] -0.088

HDAC8 (UniProt Q9BY41)
inactive: erlotinib -0.015 | [1] -0.028 | [2] -0.132 | [3] 0.012 | [4] -0.052 | [5] -0.037 | [6] -0.001 | [7] 0.027 | [8] -0.061 | IRAK-1-4 Inhibitor I 0.008 | ibrutinib -0.102 | [9] 0.049 | ralimetinib -0.018 | [10] 0.041 | [11] 0.045 | [12] -0.111 | [13] 0.08 | [14] -0.012 | [15] -0.013 | [16] 0

The listing continues:

HDDC2 (UniProt Q7Z4H3)
inactive: erlotinib 0.032 | [1] 0.061 | [2] -0.023 | [3] 0.027 | [4] -0.025 | [5] 0.01 | [6] 0.048 | [7] 0.039 | [8] 0.055 | IRAK-1-4 Inhibitor I 0.017 | ibrutinib 0.068 | [9] 0.016 | ralimetinib 0.012 | [10] 0.019 | [11] -0.032 | [12] 0.017 | [13] 0.017 | [14] -0.008 | [15] -0.025 | [16] 0.026

H2AZ1 (UniProt P0C0S5)
inactive: erlotinib -0.006 | [1] 0.125 | [2] 0.125 | [3] -0.096 | [4] -0.005 | [5] 0.037 | [6] 0.058 | [7] 0.019 | [8] 0.008 | IRAK-1-4 Inhibitor I 0.053 | ibrutinib -0.002 | [9] -0.076 | ralimetinib -0.019 | [10] -0.023 | [11] -0.038 | [12] 0.025 | [13] 0.029 | [14] -0.045 | [15] 0.059 | [16] -0.014

GXYLT1 (UniProt Q4G148)
inactive: erlotinib -0.09 | [1] 0.016 | [2] -0.039 | [3] 0.085 | [4] -0.075 | [5] -0.052 | [6] -0.052 | [7] -0.044 | [8] 0.081 | IRAK-1-4 Inhibitor I 0.054 | ibrutinib -0.016 | [9] -0.045 | ralimetinib 0.031 | [10] -0.017 | [11] -0.029 | [12] 0.078 | [13] -0.169 | [14] -0.07 | [15] -0.028 | [16] -0.054

H1-3 (UniProt P16402)
inactive: erlotinib -0.021 | [1] -0.035 | [2] -0.059 | [3] -0.004 | [4] -0.002 | [5] 0.037 | [6] 0.071 | [7] 0.035 | [8] -0.001 | IRAK-1-4 Inhibitor I 0.024 | ibrutinib -0.029 | [9] -0.021 | ralimetinib -0.046 | [10] 0.013 | [11] 0.033 | [12] 0.001 | [13] 0.17 | [14] -0.011 | [15] -0.036 | [16] 0.015

HADHB (UniProt P55084)
active: [2] 0.367
inactive: erlotinib -0.108 | [1] -0.039 | [3] -0.036 | [4] -0.128 | [5] -0.029 | [6] 0.011 | [7] -0.066 | [8] 0.062 | IRAK-1-4 Inhibitor I 0.025 | ibrutinib 0.086 | [9] -0.05 | ralimetinib 0.002 | [10] 0.104 | [11] -0.024 | [12] -0.046 | [13] 0.028 | [14] 0.062 | [15] -0.03 | [16] 0.077

GRK2 (UniProt P25098)
inactive: erlotinib 0.023 | [1] 0.028 | [2] 0.015 | [3] 0.115 | [4] -0.005 | [5] -0.025 | [6] -0.098 | [7] -0.026 | IRAK-1-4 Inhibitor I -0.002 | ibrutinib 0.002 | [9] 0.011 | ralimetinib 0.006 | [10] 0.036 | [11] 0 | [12] 0.151 | [13] 0.014 | [14] -0.048 | [15] 0.007 | [16] -0.031
active: [8] 0.536

HAUS4 (UniProt Q9H6D7)
inactive: erlotinib 0.012 | [1] -0.029 | [2] -0.036 | [3] 0.064 | [4] -0.003 | [5] 0.015 | [6] -0.015 | [7] -0.025 | [8] -0.007 | IRAK-1-4 Inhibitor I -0.016 | ibrutinib 0.04 | [9] -0.033 | ralimetinib 0.003 | [10] 0.01 | [11] -0.004 | [12] 0.006 | [13] -0.016 | [14] -0.008 | [15] 0.057 | [16] -0.01
